In PMC12752355:
Results are given in words; binding and its absence hold for the method and conditions named. Binding seen in cells or lysates may run through a third protein. Some binding calls cover weakened binding; strength is not graded here.

Protein sequences, listed by entry. Tags and fused reporters are not part of them.
UniProt Q09472: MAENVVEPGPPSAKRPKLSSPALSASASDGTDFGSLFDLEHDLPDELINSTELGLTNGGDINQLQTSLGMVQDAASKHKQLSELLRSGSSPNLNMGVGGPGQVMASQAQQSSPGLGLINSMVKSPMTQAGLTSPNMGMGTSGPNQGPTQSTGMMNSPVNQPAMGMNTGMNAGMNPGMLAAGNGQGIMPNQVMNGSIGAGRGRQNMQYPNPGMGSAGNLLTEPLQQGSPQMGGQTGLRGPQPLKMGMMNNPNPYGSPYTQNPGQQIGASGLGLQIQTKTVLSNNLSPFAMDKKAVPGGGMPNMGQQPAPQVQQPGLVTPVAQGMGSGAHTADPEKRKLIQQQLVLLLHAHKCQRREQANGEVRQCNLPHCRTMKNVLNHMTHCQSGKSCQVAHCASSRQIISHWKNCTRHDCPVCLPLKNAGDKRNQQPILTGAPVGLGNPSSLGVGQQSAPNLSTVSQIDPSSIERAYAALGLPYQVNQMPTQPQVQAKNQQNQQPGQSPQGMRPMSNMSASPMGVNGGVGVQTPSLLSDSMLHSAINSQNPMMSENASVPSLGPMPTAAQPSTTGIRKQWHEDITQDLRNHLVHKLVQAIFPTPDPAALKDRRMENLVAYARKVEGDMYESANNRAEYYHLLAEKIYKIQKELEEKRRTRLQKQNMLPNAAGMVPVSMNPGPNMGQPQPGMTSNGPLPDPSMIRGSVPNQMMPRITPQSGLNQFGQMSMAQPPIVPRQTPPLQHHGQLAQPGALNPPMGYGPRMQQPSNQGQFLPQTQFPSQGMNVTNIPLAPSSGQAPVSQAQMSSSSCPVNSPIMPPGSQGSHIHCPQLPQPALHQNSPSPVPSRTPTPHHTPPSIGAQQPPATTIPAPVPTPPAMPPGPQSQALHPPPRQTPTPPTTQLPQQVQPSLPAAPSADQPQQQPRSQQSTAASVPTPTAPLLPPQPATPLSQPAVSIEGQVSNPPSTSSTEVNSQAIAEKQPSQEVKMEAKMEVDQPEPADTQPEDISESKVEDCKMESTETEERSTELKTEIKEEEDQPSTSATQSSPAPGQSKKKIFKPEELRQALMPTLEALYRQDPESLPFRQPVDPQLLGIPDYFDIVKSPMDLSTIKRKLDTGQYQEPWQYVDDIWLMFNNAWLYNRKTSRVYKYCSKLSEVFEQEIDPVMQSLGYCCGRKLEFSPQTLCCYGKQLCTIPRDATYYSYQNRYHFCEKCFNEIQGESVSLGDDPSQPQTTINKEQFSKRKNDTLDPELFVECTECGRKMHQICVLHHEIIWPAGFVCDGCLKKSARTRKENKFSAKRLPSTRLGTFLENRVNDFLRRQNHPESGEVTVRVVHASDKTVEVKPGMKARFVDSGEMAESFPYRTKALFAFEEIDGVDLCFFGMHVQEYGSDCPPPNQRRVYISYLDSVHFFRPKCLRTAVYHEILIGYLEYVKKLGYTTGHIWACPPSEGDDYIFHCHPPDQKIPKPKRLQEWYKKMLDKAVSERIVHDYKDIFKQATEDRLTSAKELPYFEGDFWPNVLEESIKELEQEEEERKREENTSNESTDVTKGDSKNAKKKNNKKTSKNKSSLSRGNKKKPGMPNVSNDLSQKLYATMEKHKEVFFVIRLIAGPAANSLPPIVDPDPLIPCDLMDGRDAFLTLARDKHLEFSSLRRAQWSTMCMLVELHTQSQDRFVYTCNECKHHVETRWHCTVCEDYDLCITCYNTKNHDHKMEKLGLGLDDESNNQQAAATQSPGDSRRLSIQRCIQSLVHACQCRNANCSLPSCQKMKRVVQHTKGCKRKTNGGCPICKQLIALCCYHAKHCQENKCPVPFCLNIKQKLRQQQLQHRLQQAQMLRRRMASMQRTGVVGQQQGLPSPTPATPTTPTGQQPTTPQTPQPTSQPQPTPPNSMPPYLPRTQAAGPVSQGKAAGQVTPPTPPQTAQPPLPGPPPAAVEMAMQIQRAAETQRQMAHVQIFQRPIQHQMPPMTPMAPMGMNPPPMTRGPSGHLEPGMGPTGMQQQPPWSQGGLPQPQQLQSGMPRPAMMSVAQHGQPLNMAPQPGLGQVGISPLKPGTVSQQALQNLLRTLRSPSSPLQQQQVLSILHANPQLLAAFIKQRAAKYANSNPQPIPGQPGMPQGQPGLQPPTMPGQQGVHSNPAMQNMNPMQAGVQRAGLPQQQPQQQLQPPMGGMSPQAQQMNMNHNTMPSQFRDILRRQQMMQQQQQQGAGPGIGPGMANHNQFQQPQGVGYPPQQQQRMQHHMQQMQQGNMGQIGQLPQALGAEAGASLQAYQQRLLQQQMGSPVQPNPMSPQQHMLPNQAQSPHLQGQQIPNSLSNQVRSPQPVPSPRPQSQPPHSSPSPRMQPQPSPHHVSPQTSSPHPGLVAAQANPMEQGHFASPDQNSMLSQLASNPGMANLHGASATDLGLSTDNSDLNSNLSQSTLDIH

Legend:
[1] = target: P300 (in HEK-293 T cells) (UniProt Q09472); test: co-IP; HEK-293 T cell lysate (IP lysis buffer with PMSF), antibody and Protein A/G agarose beads overnight at 4 C; which protein was precipitated is not told (Figure S7B)
[2] = target: P300 (human (endogenous in EJ-1)) (UniProt Q09472); test: co-IP; EJ-1 cell lysate (IP lysis buffer with PMSF); immunoprecipitated with anti-P300 antibody or control IgG and Protein A/G agarose beads overnight at 4 C, six washes; western blot for HNRNPA1

Substance | binding [1] | binding [2]
HNRNPA1 (in HEK-293 T cells) (from UniProt P09651-1 1-372) | binds | –
heterogeneous nuclear ribonucleoprotein A1 (HNRNPA1) (from UniProt P09651-1 1-372) | – | binds
